The assay in a line: qHTS Assay to Find Inhibitors of Chronic Active B-Cell Receptor Signaling. To be noted: ABC-DLBCL IkBa-CBG/CBR reporter, luminescence ratio (green luciferase fused to IkBa over red control in TMD8 lymphoma cells), 4 h. In short, it runs like this:
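TMD8 human ABC-DLBCL cells with doxycycline-inducible IκBα–green luciferase fusion and unfused red luciferase, in 0.5% FBS medium; compounds up to 46 uM, 4 h at 37C. Green/red luminescence ratio, filter-overlap corrected, fitted to concentration-response curves.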
Background: In qHTS, concentration-response curves come from the screen itself.

The mark [1] stands for this setting: measured here: CBR red luminescence, cell number.
Where [2] appears, read: measured here: IkBa-CBG green luminescence.

Broadly, the AC50 is the concentration giving half of the maximal activity seen.

The list shows a part of the results. These are further read-outs of the screen, such as a control signal, another cell line or another target. No call is given for them. Most of these compounds were active or inconclusive in the main read-out, so they are no random draw. The note in brackets gives the kind of curve behind each potency; many fits are weak.

Take `O=C(NC1CC1)c1ccc2c(c1)NC(=O)c1ccccc1S2`: under setting [1], the AC50 was 6.51 µM [rising, single point].
Same read-out and setting: the same measure for `CC12CCC3c4ccc(O)cc4CCC3C1CC(O)C2O` (stereo not given): 29.1 µM [rising, single point]; for `O=C(CCN1C(=O)/C(=C/c2ccccc2Cl)SC1=S)NC1C=CS(=O)(=O)C1` (stereo not given): 12.6 µM [falling, partial curve]; for `CN(c1ccccc1C(=O)N1CCN(c2ccccc2F)CC1)S(=O)(=O)c1ccccc1`: 35.5 µM [falling, single point].
On the same count and under the same terms, in the case of `Cc1cc(C)c2nc(N(CCCN(C)C)C(=O)c3ccc4c(c3)OCCO4)sc2c1` it was 0.259 µM [falling, full curve, poor fit]; in that of `O=C1CCCc2ccccc2N1Cc1ccccc1`, 3.55 µM [falling, partial curve, poor fit].
Still for that read-out and setting: the same measure for `COc1ccc(/C=N/NC(=O)c2ccn[nH]2)cc1COc1ccc(Cl)cc1Cl`: 12.6 µM [falling, partial curve, poor fit]; for `CCOC(=O)c1[nH]c(C(=O)O)c(OC(=O)CC)c1C`: 25.1 µM [rising, single point].
For `COC(=O)CSCC(=O)Nc1nnc(-c2ccccc2C)s1`, under setting [1], the AC50 was 6.31 µM [falling, partial curve].
Still for that read-out and setting: the same measure for `Cc1cc(C)c([C@@H]2C[C@H]3CN(C4CCCC4)C(=O)[C@]34CCCN24)c(-n2cccn2)c1`: 25.1 µM [rising, single point]; for `COc1ccc(C(=O)COC(=O)c2ccc(Cl)nc2)c(OC)c1`: 25.9 µM [rising, single point]; for `O=C(CCCCCN1C(=O)c2ccccc2C1=O)Oc1ccc2c3c(c(=O)oc2c1)CCC3`: 0.517 µM [rising, full curve, poor fit].
On the same count and under the same terms, the same measure for `O=C(CSc1nncn1-c1ccccc1)Nc1ccccc1F`: 35.5 µM [falling, single point].
Same read-out and setting: the same measure for `O=C(Nc1ccc(-c2nc3ccccc3o2)c(O)c1)c1cc(-n2cnnc2)ccc1Cl`: 25.9 µM [rising, partial curve, poor fit]; for `CC(C)CN(CCCNC(=O)c1cc(=O)[nH]c2ccc(S(=O)(=O)N3CCCC3)cc12)CC(C)C`: 3.16 µM [falling, partial curve, poor fit].
On to `CCn1c(=S)sc2c(=O)n(CC(=O)Nc3cccc(Br)c3)c(C)nc21`, for which the half-maximal activity concentration (AC50) under setting [1] is 12.6 µM [falling, partial curve, poor fit].
`CC(=O)c1c(C)[nH]c(-c2ccccc2)c1C`: the AC50 under setting [1] was 3.66 µM [rising, full curve] and the AC50 under setting [2] was 23.1 µM [falling, single point].
Turning to `c1ccc(-c2nnc(CN3CCCCC3)o2)cc1`, under setting [1], the AC50 is 35.5 µM [falling, single point].
The same measure, in the same setting: the same measure for `O=C(NCc1ccco1)C1CCC(CNS(=O)(=O)c2cccc3cccnc23)CC1` (stereo not given): 0.00651 µM [falling, full curve, poor fit]; for `CCCCN(C(=O)c1cc2c(s1)CCC2)c1c(N)n(CC(C)C)c(=O)[nH]c1=O`: 32.6 µM [rising, single point]; for `CCOC(=O)c1cnn(-c2ccc(Cl)cc2)c1C1CCN(C(=O)OC(C)(C)C)CC1`: 23.1 µM [rising, single point].
Still for that read-out and setting: in the case of `O=c1oc2ccccc2cc1-c1csc(Nc2ccc(O)cc2)n1` it was 28.2 µM [falling, single point]; in that of `O=C(Cn1ncc2c1-c1ccccc1OC2)N1CCN(Cc2ccc3c(c2)OCO3)CC1`, 6.51 µM [falling, single point]; in that of `Cc1cc(C)nc(NS(=O)(=O)c2ccc(NC(=O)CCC3COc4ccccc4O3)cc2)n1` (stereo not given), 0.731 µM [falling, partial curve, poor fit].
Regarding `c1ccc(N2CCN(c3nc(NCc4ccco4)c4ccccc4n3)CC2)cc1`, under setting [1], the AC50 was 3.66 µM [rising, partial curve, poor fit].
On the same count and under the same terms, the same measure for `COc1ccc2c(c1)c(CC(=O)Nc1ccc(C(C)=O)cc1)c(C)n2C(=O)c1ccc(Cl)cc1`: 2.59 µM [falling, partial curve, poor fit]; for `CCOC(=O)c1cnc2c(OC)cccc2c1N1CCN(c2ccc(OC)cc2)CC1`: 13 µM [falling, single point]; for `Cc1ccc(NC(=O)/C=C/c2cccc([N+](=O)[O-])c2)nc1`: 5.01 µM [rising, partial curve, poor fit].
Regarding `Cc1nc2ncnn2c(N2CCN(S(=O)(=O)c3ccc(Br)cc3)CC2)c1C`, the AC50 under setting [1] is 14.1 µM [rising, partial curve, poor fit].
On the same count and under the same terms, in the case of `Cc1ccc(NC(=O)NC(=O)CN2CCN(c3ccc(O)cc3)CC2)c(C)c1` it was 14.1 µM [rising, partial curve, poor fit].
Still for that read-out and setting: the same measure for `COc1ccc(/C=N\NC(=O)c2cccc([N+](=O)[O-])c2)cc1Cn1cc([N+](=O)[O-])cn1`: 3.16 µM [rising, single point]; for `CC(=O)Nc1ccc(N2C(C(C)=O)=NN(c3ccc(Cl)cc3)C2c2sccc2C)cc1` (stereo not given): 7.31 µM [falling, partial curve].
As to `Cc1cc(C)nc(S/C=C/C(=O)c2ccccc2F)n1`, the AC50 reads like this: under setting [1], 6.31 µM [rising, single point]; under setting [2], 2.82 µM [falling, full curve, poor fit].
Consider `CC1CCCC(C)N1CCNC(=O)Nc1ccc(Cl)cc1` (stereo not given), for which the AC50 under setting [1] is 2.31 µM [rising, partial curve, poor fit].
Consider `CC(C)C(=O)Nc1nnc(Cc2ccccc2)s1`, for which, under setting [1], the AC50 is 2.82 µM [rising, partial curve, poor fit].
Still for that read-out and setting: the same measure for `CCN(CC)CCCn1c2c(c(SCC(=O)Nc3nc4ccccc4s3)nc1=O)CCC2`: 20.6 µM [falling, single point].
As for `CC(=O)c1cc2c(cc1NS(=O)(=O)c1ccc(C)cc1)OCO2`, the AC50 under setting [1] was 14.6 µM [falling, single point].
Same read-out and setting: in the case of `CSc1ccc(/C=N/NC(=O)c2sccc2C)cc1` it was 0.184 µM [falling, full curve].
The same measure, in the same setting: the same measure for `COc1ccc(NC(=O)c2cc3n(n2)C(C(F)(F)F)CC(c2ccc4c(c2)OCO4)N3)cc1OC` (stereo not given): 7.94 µM [falling, partial curve, poor fit]; for `COc1ccc(-c2nnc3n(CCc4ccccc4)c(=O)c4ccccc4n23)c(OC)c1`: 0.517 µM [falling, full curve, poor fit]; for `COc1cc(CCC(=O)OCC(=O)Nc2cccc(S(=O)(=O)N(C)C)c2)cc(OC)c1OC`: 23.1 µM [rising, partial curve, poor fit].
The same measure, in the same setting: in the case of `O=C1NC(=S)N/C1=C/c1cc([N+](=O)[O-])ccc1N1CCOCC1` it was 12.6 µM [rising, partial curve].
For the molecule `CC(C)NS(=O)(=O)c1ccc(CCC(=O)NCc2ccco2)cc1`, the half-maximal activity concentration (AC50) under setting [1] was 3.26 µM [falling, full curve, poor fit].
Take `O=C1/C(=C/c2cccs2)SC(=S)N1c1ccccc1`: the concentration at half-maximal activity (AC50) under setting [1] is 0.501 µM [rising, full curve, poor fit].
Same read-out and setting: the same measure for `CC(C)OC(=O)c1ccc(OC(=O)c2cccnc2)cc1`: 20.6 µM [falling, partial curve].
Still for that read-out and setting: in the case of `O=C1NCCN1CCNS(=O)(=O)c1ccc2ccccc2c1` it was 6.31 µM [falling, single point].
`O=C(O)c1cccc(N2C(=O)c3cccc(Oc4ccc(Cl)cc4)c3C2=O)c1`: the AC50 by setting is: under setting [1], 5.17 µM [falling, partial curve]; under setting [2], 20.6 µM [rising, partial curve, poor fit].
Regarding `CC1CC(C)CN(C(=O)CCCNC(=O)c2ccc(Cl)cc2)C1` (stereo not given), under setting [1], the AC50 is 12.6 µM [falling, single point].
On the same count and under the same terms, in the case of `Cc1ccc(CNC(=O)NC2CCCCC2)cc1` it was 29.1 µM [rising, single point]; in that of `COc1ccc(C2C(C#N)=C(N)Oc3cc(N)ccc32)cc1OC` (stereo not given), 35.5 µM [falling, single point].
On to `Cc1c(C#N)c(N=CN(C)C)c(C(=O)c2ccccc2)n1-c1ccccc1`, for which the AC50 under setting [1] is 6.51 µM [rising, full curve].
On the same count and under the same terms, the same measure for `Cc1[nH]c2ccccc2c1/C=N/NC(=O)c1cc(-c2ccncc2)nc2ccccc12`: 6.31 µM [rising, single point].
Same read-out and setting: the same measure for `O=C(Nc1ccc(Cl)c(Cl)c1)N1CCOCC1`: 1.78 µM [rising, partial curve, poor fit]; for `COc1ccccc1NC(=O)CSc1nnc(CNC(=O)COc2ccc(Cl)cc2)o1`: 3.16 µM [rising, single point]; for `COc1ccc(CNc2ncc(-c3ccc(Br)cc3)n2C)cc1OC`: 2.82 µM [falling, partial curve, poor fit].
Same read-out and setting: in the case of `Cc1ccc(CN(C(=O)c2csnn2)C(C(=O)NC2CCCC2)c2ccc(C)o2)cc1` (stereo not given) it was 3.66 µM [falling, full curve, poor fit]; in that of `O=C(Nc1c(C(=O)O)[nH]c2ccccc12)NC1CCCCC1`, 3.98 µM [falling, full curve, poor fit]; in that of `CC(=O)c1ccc(Nc2nc3ccc(C)cc3n3cnnc23)cc1`, 0.316 µM [rising, full curve, poor fit].
Turning to `COc1cc(O)c(C(CC(=O)N2CCCC2)c2cc(OC)c(OC)c(OC)c2)c(OC)c1` (stereo not given), the AC50 under setting [1] is 12.6 µM [rising, single point].
On the same count and under the same terms, the same measure for `O=C(/C=C/c1ccco1)NC(=S)Nc1ccccc1Br`: 35.5 µM [falling, single point]; for `CC(C)[C@H]1CN(C)CCN1Cc1cn(C)nc1-c1cccc(Cl)c1`: 11.2 µM [falling, partial curve, poor fit].
The same measure, in the same setting: the same measure for `CC(=O)Nc1cc(C(=O)NCc2ccc(C)cc2)ccc1S(=O)(=O)c1ccc(Cl)cc1`: 0.501 µM [rising, full curve, poor fit].

For the origin of these results see PubChem BioAssay AID493014 (National Center for Advancing Translational Sciences (NCATS), 2011).
